From publication doi:10.1101/719559 come the findings set out here.

The chains behind the UniProt entries cited, without tags or fusion partners. Where a name states a change or a piece, a line headed by the entry shows the natural chain unless it says otherwise.
UniProt Q9NRC8: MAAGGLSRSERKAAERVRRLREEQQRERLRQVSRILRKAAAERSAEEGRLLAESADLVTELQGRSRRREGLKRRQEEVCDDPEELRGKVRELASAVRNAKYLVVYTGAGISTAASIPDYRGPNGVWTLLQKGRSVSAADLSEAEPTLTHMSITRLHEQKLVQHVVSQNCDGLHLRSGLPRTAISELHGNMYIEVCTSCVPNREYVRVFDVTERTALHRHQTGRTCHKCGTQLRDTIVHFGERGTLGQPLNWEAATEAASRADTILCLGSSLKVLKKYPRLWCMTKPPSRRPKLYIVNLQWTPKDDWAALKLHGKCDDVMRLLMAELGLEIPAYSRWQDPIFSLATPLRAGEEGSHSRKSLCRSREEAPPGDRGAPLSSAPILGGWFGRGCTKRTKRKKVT

This assay has as its target SirT7 N189A expressed in HEK293F cells (UniProt Q9NRC8). The assay can be described thus: co-IP.

Results are given in words; binding and its absence hold for the method and conditions named. Binding seen in cells or lysates may run through a third protein.

In the case of “endogenous mH2A1.1 (HEK293F cells) (from UniProt O75367-2 1-369)”, the binding result is on record as “no binding”.
